Results are given in words; binding and its absence hold for the method and conditions named. Some results given as binding are weak or reduced against the parent protein; the word gives no strength.
Experiments:
[1] = biological target: M2 protein of A/Puerto Rico/8/34 (H1N1), on virus particles, infected MDCK cells or transfected cells (influenza A virus A/Puerto Rico/8/34 (H1N1)) (UniProt P06821); assay: ELISA on PR8 virus, crude supernatant
[2] = biological target: M2 protein of A/Puerto Rico/8/34 (H1N1), on virus particles, infected MDCK cells or transfected cells (influenza A virus A/Puerto Rico/8/34 (H1N1)) (UniProt P06821); assay: binding to MDCK cells infected with PR8 virus (FIG. 10)
[3] = biological target: M2 protein of A/Puerto Rico/8/34 (H1N1), on virus particles, infected MDCK cells or transfected cells (influenza A virus A/Puerto Rico/8/34 (H1N1)) (UniProt P06821); assay: ELISA on influenza virus, crude supernatant (FIG. 9)
[4] = biological target: M2 protein of A/Puerto Rico/8/34 (H1N1), on virus particles, infected MDCK cells or transfected cells (influenza A virus A/Puerto Rico/8/34 (H1N1)) (UniProt P06821); assay: FMAT on MDCK cells infected with A/PR/8/32, crude supernatant (FIG. 10)

The chains behind the UniProt entries cited, without tags or fusion partners.
UniProt P06821: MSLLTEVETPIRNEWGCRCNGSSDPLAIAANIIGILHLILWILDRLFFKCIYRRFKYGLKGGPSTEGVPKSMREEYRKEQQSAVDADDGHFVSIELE

Measured: binding

B1: 21B15 (antibody, V domains shown)
VH: QVQLQESGPGLVKPSETLSLTCTVSGSSISNYYWSWIRQSPGKGLEWIGFIYYGGNTKYNPSLKSRVTISQDTSKSQVSLTMSSVTAAESAVYFCARASCSGGYCILDYWGQGTLVTVSS
VL: DIQVTQSPSSLSASVGDRVTITCRASQNIYKYLNWYQQRPGKAPKGLISAASGLQSGVPSRFSGSGSGTDFTLTITSLQPEDFATYYCQQSYSPPLTFGGGTRVDIK
binds: all assays above

From US20120207760A1
